In patent publication US20210077575A1, “NANOPARTICLES FOR THE TARGETED DELIVERY OF THERAPEUTIC POLYPEPTIDES” (Cedars-Sinai Medical Center, priority 2018, published 2021):
No constants are given. Whether binding was seen depends on the method and setting. Some results given as binding are weak or reduced against the parent protein; the word gives no strength.

Columns and labels:
[1] = molecular target: HerPBK10 carrier polypeptide comprising a Her cell-targeting segment, a penton base (PB) segment, a decalysine (K10) binding segment, and an N-terminal purification tag; assay: dynamic light scattering of the mixture against the single components
[2] = molecular target: HerPBK10 carrier polypeptide comprising a Her cell-targeting segment, a penton base (PB) segment, a decalysine (K10) binding segment, and an N-terminal purification tag; assay: nanoparticle assembly by mixing at molar ratio 1:3 HerPBK10:GeloninD10

For “gelonin with a C-terminal deca-aspartic acid tag (from UniProt P33186 47-297)”, the binding [1] was “binds” and the binding [2] was “binds”.
